Source: PubChem BioAssay (Tox21)
Values joined by “and” are separate entries in the source; they are usually repeats but may differ in a detail not shown here. Identical values can stand only once. The inconclusive results got no clear call from the source; some entries with a clear call stand among them for comparison. Where the call is inconclusive, the potency comes from a doubtful curve fit. Active and inactive are the calls of the source. Calls follow the shape of the dose curve; as a rule, active = well fitted inhibition curve with a large enough effect in the signal ratio in the repeat runs (not every such curve was filed as active); inconclusive = weak or mixed curves, or effect the other way; inactive = flat fitted curve, though single readings scatter; the % refers to the signal ratio.

assay: cAMP Responsive Elements (CRE) small molecule antagonists, cell-based qHTS assay (AID 1963591); details: CRE-bla HEK293T, beta-lactamase FRET ratio; activity change, negative = inhibition: at 92.4 µM (top of the series) unless noted
Description: U.S. Tox21 Program National Center for Advancing Translational Sciences [NCATS] Division of Preclinical Innovation [DPI] U.S. Environmental Protection Agency [EPA] National Institutes of Environmental Health Sciences [NIEHS] National Toxicology Program [NTP] U.S. Food and Drug Administration [FDA] Tox21 Assay Overview: CREB (cyclic-AMP Responsive Element Binding Protein) is a cellular transcription factor. It binds to certain DNA sequences called cAMP Responsive Elements (CRE) and regulates the transcription of the genes. […] This cell line can be used to find agonists/antagonists of the cyclic AMP signaling pathway. The activation of the report gene under culture conditions can be detected by fluorescence intensity. This cell line has been used to screen the Tox21 10K compound library to […].
Tox21 Assay Protocol Summary: CRE-bla Hek 293T cells were suspended in assay medium (DMEM containing 10% dialyzed FBS, 0.1 mM NEAA, 1 mM sodium pyruvate and 25 mM HEPES) and dispensed at 2,000 cells/4 uL /well into 1536-well black wall/clear bottom plates using a Multidrop Combi (ThermoFisher Scientific, Waltham, MA) dispenser. After the assay plates were incubated at 37 C/5% CO2 for 18 hrs, 23 nL of compounds dissolved in DMSO, positive controls or DMSO only was transferred to the assay plate by a pintool workstation (Kalypsys, San Diego, CA), followed by addition of 1 […] uL of 1.25uM NKH477 (0.25 uM as final concentration) in assay medium using a Flying Reagent Dispenser (Aurora Discovery, San Diego, CA). The plates were incubated at 37 C and 5% CO2 for 3 hrs. Then 1 uL of LiveBLAzer B/G FRET substrate (Invitrogen, Carlsbad, CA) was added to each well using Bioraptr Flying Reagent Dispenser (FRD, Aurora Discovery, San Diego, CA). The plates were incubated at room temperature for 2 h.
% is scaled to controls: 0 for no effect and ±100 for the full control effect; potency is read from the fitted curve at half-maximal effect.

Row | Compound | Potency | activity change, negative = inhibition
1 | CSc1ccc2c(c1)C(N1CCN(C)CC1)Cc1ccccc1S2 (stereo not given) | inconclusive: 29.8 µM [rising, single point] | –
2 | O=C=Nc1ccc(Cc2ccc(N=C=O)cc2)cc1 | – | inconclusive: -15.2%
3 | CCO[Si](CCCSSSSCCC[Si](OCC)(OCC)OCC)(OCC)OCC | inconclusive: 17.2 µM [fluorescent] | –
4 | CC(=O)OC/C=C(C)/C=C/C=C(C)/C=C/C1=C(C)CCCC1(C)C | inconclusive: 29.9 µM [fluorescent, partial curve, poor fit] and inconclusive: 45.2 µM [fluorescent, partial curve] | –
5 | CC(C)C(=O)O | – | inactive: 0.0572%
6 | COc1ccc(OC)c(NC(=O)CC(C)=O)c1 | inconclusive: 27.3 µM [activator, partial curve] | –
7 | COC(=O)c1nc(Cl)c(Cl)nc1N | inconclusive: 18.8 µM [fluorescent, partial curve] | –
8 | Cc1ccc(C#N)cc1 | – | inactive: -0.766%
9 | CN(C)CCOC(=O)COc1ccc(Cl)cc1 | – | inconclusive: 19.9%
10 | CCC(C)(C)CC | – | inactive: -17.8%
11 | OCCOCCN1CCN(C2=Nc3ccccc3Sc3ccccc32)CC1 | inconclusive: 9.44 µM [fluorescent, partial curve] and inconclusive: 13.3 µM [fluorescent, partial curve] | –
12 | O=C(c1ccccc1)c1cccc(O)c1 | – | inconclusive: -6.92%
13 | CC(=O)Nc1ccc2c(c1)Cc1cc(NC(C)=O)ccc1-2 | – | inconclusive: -0.292%
14 | CC(CC(=O)O)CC(C)(C)C (stereo not given) | – | inactive: 0.666%
15 | CNCc1cc(F)ccc1Oc1ccc(Cl)c(Cl)c1 | – | inconclusive: -19.9%
16 | CN1CCC(Nc2ncc3ncnc(Nc4ccc(F)c(Cl)c4)c3n2)CC1 | inconclusive: 13.3 µM [fluorescent, partial curve] | –

Row | Compound | Potency | activity change, negative = inhibition
17 | O=c1c(-c2ccc(O)cc2)coc2cc(O)cc(O)c12 | inconclusive: 86.3 µM [activator, single point] | –
18 | CC(C)C(=O)OC(=O)C(C)C | – | inactive: -0.469%
19 | NC(=O)Cn1c(=O)cc(CCN2CCN(c3nccc4sccc34)CC2)c2ccc(F)cc21 | inconclusive: 54.5 µM [fluorescent, partial curve] | –
20 | C=CC(=O)OCCOCCOCCOCCOC(=O)C=C | inconclusive: 27.4 µM [inhibitor] | inconclusive: -102%
21 | CN(C)CCCN1c2ccccc2Sc2ccccc21 | – | inactive: -16.2% [at 42.4 µM]
22 | CN(C)CCCN1c2ccccc2Sc2ccc(Cl)cc21 | inconclusive: 68.6 µM [inhibitor] | inconclusive: -35.6% [at 42.4 µM]
23 | COc1cccc2sc(N)nc12 | – | inactive: 11.6%
24 | CCOc1ccc2c(c1)C(C)=CC(C)(C)N2 | inconclusive: 61.1 µM [fluorescent] | inconclusive: 13.4%
25 | Cc1c(C)n(Cc2ccccc2)c2ccc(C(=O)OCCN(C)C)cc12 | inconclusive: 13.3 µM [inhibitor, single point] | –
26 | COc1ccc(C(=O)Nc2nc3ccccc3c(NCc3ccccc3)c2C#N)cc1 | inconclusive: 27.3 µM [fluorescent, partial curve] | –
27 | C[C@]12C[C@H](O)[C@H]3[C@@H](CCC4=CC(=O)CC[C@@]43C)[C@@H]1CC[C@@H]2C(=O)CO | inconclusive: 10.9 µM [activator, partial curve] and inconclusive: 23.7 µM [activator, partial curve, poor fit] | inconclusive: 0.152%
28 | Cc1cc(C)c(S(=O)(=O)O)cc1N=Nc1cc(S(=O)(=O)O)c2ccccc2c1O | – | inactive: -6.5%
29 | CC(C)=CCOc1ccc(/C=C/C(=O)c2ccc(OCC=C(C)C)cc2OCC(=O)O)cc1 | – | inconclusive: 13.3% [at 42.4 µM]
30 | Oc1ccc(OCc2ccccc2)cc1 | inconclusive: 47.5 µM [inhibitor, partial curve, poor fit] | inconclusive: 16.6% [at 42.4 µM]
31 | c1ccc(Sc2ccccc2)cc1 | – | inactive: 10.3%
32 | CC(CN(C)C)CN1c2ccccc2CCc2ccccc21 (stereo not given) | – | inconclusive: -2.85% [at 42.4 µM]

same assay, conditions: CRE-bla HEK293T, beta-lactamase FRET ratio; at 42.4 µM (top of the series)

Row | Compound | activity change, negative = inhibition
33 | O=c1c(-c2ccc(O)cc2)coc2cc(O)cc(O)c12 | inconclusive: 18.4%

same assay, conditions: CRE-bla HEK293T, beta-lactamase FRET ratio; at 92.4 µM (top of the series)

Row | Compound | activity change, negative = inhibition
34 | CC(=O)Nc1ccc2c(c1)Cc1cc(NC(C)=O)ccc1-2 | inactive: -10.6%
35 | O=c1c(-c2ccc(O)cc2)coc2cc(O)cc(O)c12 | inconclusive: 11.5%
